Reference: PubChem BioAssay AID493014 (National Center for Advancing Translational Sciences (NCATS), 2011)
Some of the results follow. Further columns of the screen follow, without active or inactive calls. Compounds called inactive in the main read-out are mostly missing here. Potencies come from curve fits of mixed quality, noted in brackets.

Experiment: qHTS Assay to Find Inhibitors of Chronic Active B-Cell Receptor Signaling
Conditions: ABC-DLBCL IkBa-CBG/CBR reporter, luminescence ratio (green luciferase fused to IkBa over red control in TMD8 lymphoma cells), 4 h
How it was run: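 Cell line TMD8 (human ABC DLBCL), stably expressing tet-inducible CBG68-IkBa fusion and CBR; IMDM/0.5% FBS; cpd up to 46 uM; dox induction, 4 h, 37C/5% CO2; dual luminescence; green/red ratio; MG132 control.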

[1] = measured here: CBR red luminescence, cell number
[2] = measured here: IkBa-CBG green luminescence

| Structure (SMILES) | AC50 [1] | AC50 [2] |
| --- | --- | --- |
| CCN(CC)CCCOC(=O)C1(c2ccccc2)CCCC1 | 29.1 µM [falling, single point] | – |
| COc1ccc(/C=C/C(=O)c2cc(Br)ccc2OC(=O)c2ccco2)cc1OC | 13 µM [rising, partial curve] | 10.3 µM [falling, partial curve] |
| COc1cccc(C(=O)Nc2cccc(SC)c2)c1 | 35.5 µM [falling, single point] | – |
| Cc1cc(=O)[nH]c(SCC(=O)Nc2ccc(Cl)cn2)n1 | 0.82 µM [falling, full curve, poor fit] | – |
| COc1ccc(C(=O)NC(C)c2cc(OC)c(OC)cc2Br)cc1 (stereo not drawn) | 22.4 µM [rising, single point] | – |
| O=C(OCCCN=C1NS(=O)(=O)c2ccccc21)c1ccc(F)cc1 | 2.31 µM [rising, partial curve, poor fit] | – |
| COc1ccc(/C=C2\SC(=S)N(CCCC(=O)N3CCCCC3CCO)C2=O)cc1 (stereo not drawn) | 1.41 µM [falling, full curve] | – |
| CC1CCCC(C)N1C(=O)COC(=O)c1cc([N+](=O)[O-])ccc1N1CCOCC1 (stereo not drawn) | 7.31 µM [rising, partial curve, poor fit] | – |
| Cc1ccccc1NC1=NC(=S)N(c2ccccc2)C12CCCCC2 | 29.1 µM [falling, single point] | – |
| O=C1CCCN2N=C(SCC(=O)Nc3cccc(C(F)(F)F)c3)SC2=N1 | 35.5 µM [falling, partial curve, poor fit] | – |
| Cn1cnc([N+](=O)[O-])c1Oc1ccc2ccccc2c1 | 1.64 µM [falling, partial curve, poor fit] | – |
| Cc1nn(C)cc1NC(=O)CCSc1nc(-c2ccco2)cc(C(F)(F)F)n1 | 4.61 µM [falling, partial curve] | 2.91 µM [rising, partial curve, poor fit] |
| Cc1c(NC(=O)C(C)OC(=O)COc2cccc3c2OC(C)(C)C3)c(=O)n(-c2ccccc2)n1C (stereo not drawn) | 20.6 µM [rising, single point] | 29.1 µM [falling, single point] |
| Cc1cc(C)n(-c2ccc(C(=O)OCC(=O)Nc3cc(S(C)(=O)=O)ccc3Cl)cc2)n1 | 1.03 µM [rising, partial curve, poor fit] | – |
| O=C(CSc1nc2cc(Cl)ccc2s1)NC1CCCc2ccccc21 (stereo not drawn) | 0.731 µM [rising, full curve, poor fit] | – |
| CC(=O)N1c2ccccc2N(Cc2ccc(C)cc2C)C(=O)C1(C)C | 9.2 µM [falling, partial curve] | – |
| CCN(CC)c1ccc(NC(=O)C2CC3CCC2C3)cc1 (stereo not drawn) | 0.631 µM [rising, full curve] | – |
| C=CCOC(=O)c1sc(NC(=O)c2ccc(OC)cc2)nc1C | 0.0891 µM [falling, full curve, poor fit] | 2 µM [rising, full curve, poor fit] |
| COc1cc2c(cc1OC)C(COc1ccc(F)cc1)N(C(=O)Cc1ccccc1)CC2 (stereo not drawn) | 35.5 µM [falling, single point] | – |
| COc1ccccc1-c1cc(C(F)(F)F)nc(S(=O)(=O)CCCC(=O)Nc2cc(C)on2)n1 | 35.5 µM [falling, single point] | – |

| Structure (SMILES) | AC50 [1] | AC50 [2] |
| --- | --- | --- |
| CCn1c(=N)c(S(=O)(=O)c2ccc(F)cc2)cc2c(=O)n3ccccc3nc21 | 3.16 µM [rising, partial curve, poor fit] | – |
| C=CCSC1=NNC(c2ccc(C(C)(C)C)cc2)=NN1 | 28.2 µM [rising, single point] | – |
| COc1ccc(/C=N/NC(=O)CN2CCSCC2)cc1C | 25.9 µM [rising, single point] | – |
| COc1ccc(C(C)=O)cc1CSc1nnc(Nc2ccccc2C)s1 | 6.51 µM [falling, partial curve] | – |
| CCOC(=O)c1cc(-c2ccccc2)sc1NC(=O)COC(=O)c1cccc(S(N)(=O)=O)c1 | 3.98 µM [rising, partial curve, poor fit] | – |
| CC1(C)NC(=O)N(CC(=O)N2CCN(c3cccc(Cl)c3)CC2)C1=O | 6.51 µM [rising, partial curve, poor fit] | – |
| CC(C)CNC(=O)COc1ccccc1[N+](=O)[O-] | 4.61 µM [rising, full curve, poor fit] | – |
| COc1ccc(-c2cc3nc(C)cc(N4CC(C)CC(C)C4)n3n2)cc1 (stereo not drawn) | 18.4 µM [rising, single point] | – |
| CC(=O)N1CCc2cc(Br)cc(S(=O)(=O)NCCCN3CCCC(C)C3)c21 (stereo not drawn) | 6.51 µM [rising, single point] | – |
| N#CC1=C(N)Oc2c(sc3ccccc23)C1c1ccco1 (stereo not drawn) | 15.8 µM [falling, single point] | – |
| C=CCn1c(NC(C)c2cc(Cl)ccc2O)nc2ccccc21 (stereo not drawn) | 28.2 µM [falling, single point] | – |
| O=c1nc(N2CCOCC2)nc(N/N=C/c2ccc3c(c2)OCO3)[nH]1 | 22.4 µM [falling, partial curve, poor fit] | – |
| CCOc1ccc2oc(C(=O)N3CC(C)OC(C)C3)c(C)c2c1 (stereo not drawn) | 3.98 µM [rising, partial curve, poor fit] | – |
| COc1ccc(C(CCN2CCN(c3ccccc3)CC2)c2c(O)cc(OC)cc2OC)cc1 (stereo not drawn) | 0.631 µM [falling, full curve, poor fit] | – |
| CC1=C(C(=O)Nc2ccccc2)C(c2ccc(C)o2)n2c(s/c(=C/c3ccccc3)c2=O)=N1 (stereo not drawn) | 11.6 µM [rising, single point] | – |
| CCc1ccc(OCC(=O)O/N=C(\N)c2ccccn2)cc1 | 0.708 µM [rising, full curve, poor fit] | – |
| O=C(c1cc(-c2ccccc2)on1)N1CCCC1 | 2.31 µM [falling, full curve, poor fit] | – |
| O=C(c1ccco1)c1n[nH]nc1-c1ccccc1 | 3.66 µM [falling, partial curve, poor fit] | – |
| N=c1c(C(=O)NC2CCCC2)cc2c(=O)n3ccccc3nc2n1C1CCCCC1 | 3.55 µM [rising, full curve, poor fit] | – |

As entered above.
O=c1nc(N2CCOCC2)nc(N/N=C/c2ccc3c(c2)OCO3)[nH]1 | AC50 [1]: 22.4 µM [falling, partial curve, poor fit]
CCOC(=O)c1cc(-c2ccccc2)sc1NC(=O)COC(=O)c1cccc(S(N)(=O)=O)c1 | AC50 [1]: 3.98 µM [rising, partial curve, poor fit]
N#CC1=C(N)Oc2c(sc3ccccc23)C1c1ccco1 (stereo not drawn) | AC50 [1]: 15.8 µM [falling, single point]
